Experimental data: the supplement of paper PMC10849652
The list shows a part of the results.

Chains of the proteins cited; added tags and fusions are not shown. Lines headed by an entry give the natural chain unless they say otherwise; changes in a name come on top.
UniProt Q8TD31: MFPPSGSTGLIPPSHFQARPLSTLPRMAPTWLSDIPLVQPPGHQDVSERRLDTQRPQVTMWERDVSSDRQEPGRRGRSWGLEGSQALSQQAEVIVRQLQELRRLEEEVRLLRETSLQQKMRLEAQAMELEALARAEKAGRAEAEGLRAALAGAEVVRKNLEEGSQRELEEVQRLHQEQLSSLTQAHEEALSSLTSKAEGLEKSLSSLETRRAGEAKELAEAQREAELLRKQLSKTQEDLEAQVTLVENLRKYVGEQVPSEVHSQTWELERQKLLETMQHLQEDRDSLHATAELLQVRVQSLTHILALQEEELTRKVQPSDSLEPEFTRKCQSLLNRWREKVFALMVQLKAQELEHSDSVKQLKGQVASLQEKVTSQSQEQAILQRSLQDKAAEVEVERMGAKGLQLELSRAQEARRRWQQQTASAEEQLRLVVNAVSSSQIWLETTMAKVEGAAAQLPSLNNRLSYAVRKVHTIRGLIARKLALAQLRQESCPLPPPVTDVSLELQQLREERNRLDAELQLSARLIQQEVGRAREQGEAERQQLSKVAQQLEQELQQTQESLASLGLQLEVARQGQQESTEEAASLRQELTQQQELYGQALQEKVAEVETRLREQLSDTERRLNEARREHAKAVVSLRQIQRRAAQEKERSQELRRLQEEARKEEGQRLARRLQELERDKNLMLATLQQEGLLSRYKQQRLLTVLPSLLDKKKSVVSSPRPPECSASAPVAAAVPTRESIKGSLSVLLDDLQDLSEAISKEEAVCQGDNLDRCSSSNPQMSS
UniProt Q96JN2: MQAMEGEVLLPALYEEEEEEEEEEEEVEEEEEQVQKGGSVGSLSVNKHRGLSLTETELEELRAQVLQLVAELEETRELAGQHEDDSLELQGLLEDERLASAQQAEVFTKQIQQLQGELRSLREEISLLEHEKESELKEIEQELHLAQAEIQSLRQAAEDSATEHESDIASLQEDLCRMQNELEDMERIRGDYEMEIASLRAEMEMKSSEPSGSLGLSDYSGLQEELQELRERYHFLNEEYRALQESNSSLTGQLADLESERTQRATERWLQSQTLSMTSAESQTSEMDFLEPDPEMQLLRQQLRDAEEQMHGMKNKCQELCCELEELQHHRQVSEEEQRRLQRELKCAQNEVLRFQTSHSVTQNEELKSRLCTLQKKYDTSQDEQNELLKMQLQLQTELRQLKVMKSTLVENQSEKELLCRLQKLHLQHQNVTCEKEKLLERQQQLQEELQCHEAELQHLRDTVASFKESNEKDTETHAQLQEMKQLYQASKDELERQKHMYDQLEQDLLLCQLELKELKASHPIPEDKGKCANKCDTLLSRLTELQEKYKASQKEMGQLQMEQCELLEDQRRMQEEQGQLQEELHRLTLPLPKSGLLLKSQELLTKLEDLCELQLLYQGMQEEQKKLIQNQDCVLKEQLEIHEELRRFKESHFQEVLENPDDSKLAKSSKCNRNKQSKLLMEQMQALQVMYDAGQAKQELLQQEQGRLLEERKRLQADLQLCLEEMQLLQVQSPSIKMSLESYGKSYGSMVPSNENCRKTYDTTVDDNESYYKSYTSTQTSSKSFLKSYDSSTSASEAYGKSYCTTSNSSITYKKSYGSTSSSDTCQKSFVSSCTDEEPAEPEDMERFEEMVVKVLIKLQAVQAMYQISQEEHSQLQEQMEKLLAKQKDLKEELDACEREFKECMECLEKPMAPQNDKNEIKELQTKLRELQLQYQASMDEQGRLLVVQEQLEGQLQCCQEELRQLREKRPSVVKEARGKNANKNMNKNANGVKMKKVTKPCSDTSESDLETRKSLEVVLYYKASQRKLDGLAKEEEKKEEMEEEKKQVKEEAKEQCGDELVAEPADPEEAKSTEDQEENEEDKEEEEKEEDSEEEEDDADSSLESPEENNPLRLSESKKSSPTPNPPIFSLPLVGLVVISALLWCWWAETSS
UniProt O14936: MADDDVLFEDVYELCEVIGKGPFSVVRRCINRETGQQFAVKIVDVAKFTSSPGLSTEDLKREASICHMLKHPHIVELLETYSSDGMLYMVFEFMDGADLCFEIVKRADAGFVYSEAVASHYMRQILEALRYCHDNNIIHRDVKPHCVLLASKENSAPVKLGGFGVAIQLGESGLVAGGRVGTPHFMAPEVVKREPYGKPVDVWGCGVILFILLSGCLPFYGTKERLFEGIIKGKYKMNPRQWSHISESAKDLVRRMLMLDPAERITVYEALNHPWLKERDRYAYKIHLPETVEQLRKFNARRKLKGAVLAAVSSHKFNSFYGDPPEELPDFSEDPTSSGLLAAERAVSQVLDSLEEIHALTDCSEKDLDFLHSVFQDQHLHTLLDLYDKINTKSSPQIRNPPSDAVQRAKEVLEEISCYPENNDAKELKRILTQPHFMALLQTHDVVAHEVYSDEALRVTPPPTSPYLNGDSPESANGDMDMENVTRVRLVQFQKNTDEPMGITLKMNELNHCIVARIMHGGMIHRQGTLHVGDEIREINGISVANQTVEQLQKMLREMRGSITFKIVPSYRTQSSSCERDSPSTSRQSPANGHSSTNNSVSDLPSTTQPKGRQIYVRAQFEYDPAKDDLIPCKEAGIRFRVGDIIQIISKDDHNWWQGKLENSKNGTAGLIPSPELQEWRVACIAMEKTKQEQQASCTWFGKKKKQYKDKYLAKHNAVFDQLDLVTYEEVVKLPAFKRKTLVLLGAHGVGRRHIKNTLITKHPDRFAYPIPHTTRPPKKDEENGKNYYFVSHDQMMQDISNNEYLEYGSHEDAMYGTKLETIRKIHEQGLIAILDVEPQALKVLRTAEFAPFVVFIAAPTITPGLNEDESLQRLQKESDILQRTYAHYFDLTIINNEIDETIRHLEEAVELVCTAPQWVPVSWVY
UniProt Q9NQ75: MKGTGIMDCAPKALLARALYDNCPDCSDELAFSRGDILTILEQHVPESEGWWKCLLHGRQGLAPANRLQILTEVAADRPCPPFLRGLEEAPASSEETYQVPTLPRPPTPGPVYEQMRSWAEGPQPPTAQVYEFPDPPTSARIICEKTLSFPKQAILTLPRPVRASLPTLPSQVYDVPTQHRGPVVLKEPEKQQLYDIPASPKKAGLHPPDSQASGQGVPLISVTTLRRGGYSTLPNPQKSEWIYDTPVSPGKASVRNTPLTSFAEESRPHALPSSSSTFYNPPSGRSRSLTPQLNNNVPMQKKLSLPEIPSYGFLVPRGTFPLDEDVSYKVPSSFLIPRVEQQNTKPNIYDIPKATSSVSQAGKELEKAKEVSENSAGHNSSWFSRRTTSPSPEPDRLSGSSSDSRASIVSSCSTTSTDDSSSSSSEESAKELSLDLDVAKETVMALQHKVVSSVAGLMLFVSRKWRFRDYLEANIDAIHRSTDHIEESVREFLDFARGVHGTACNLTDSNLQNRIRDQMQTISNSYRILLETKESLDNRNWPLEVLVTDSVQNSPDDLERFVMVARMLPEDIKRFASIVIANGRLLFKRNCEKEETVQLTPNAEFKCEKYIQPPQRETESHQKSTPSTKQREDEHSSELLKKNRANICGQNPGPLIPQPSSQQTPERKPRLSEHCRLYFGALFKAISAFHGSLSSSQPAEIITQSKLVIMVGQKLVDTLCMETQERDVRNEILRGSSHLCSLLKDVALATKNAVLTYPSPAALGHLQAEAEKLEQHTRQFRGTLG
UniProt Q13951, whole entry, looked up: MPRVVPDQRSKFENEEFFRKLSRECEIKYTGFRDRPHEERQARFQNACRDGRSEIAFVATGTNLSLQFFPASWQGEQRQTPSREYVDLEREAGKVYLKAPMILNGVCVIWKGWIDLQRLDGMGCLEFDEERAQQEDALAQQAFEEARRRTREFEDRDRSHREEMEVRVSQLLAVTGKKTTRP
UniProt P48509: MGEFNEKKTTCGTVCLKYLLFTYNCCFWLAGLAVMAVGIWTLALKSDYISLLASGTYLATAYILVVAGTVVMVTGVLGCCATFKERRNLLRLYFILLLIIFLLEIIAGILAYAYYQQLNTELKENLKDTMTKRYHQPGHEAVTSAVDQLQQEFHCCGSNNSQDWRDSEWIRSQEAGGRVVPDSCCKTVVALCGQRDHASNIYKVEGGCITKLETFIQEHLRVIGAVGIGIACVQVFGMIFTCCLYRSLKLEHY
UniProt Q15834: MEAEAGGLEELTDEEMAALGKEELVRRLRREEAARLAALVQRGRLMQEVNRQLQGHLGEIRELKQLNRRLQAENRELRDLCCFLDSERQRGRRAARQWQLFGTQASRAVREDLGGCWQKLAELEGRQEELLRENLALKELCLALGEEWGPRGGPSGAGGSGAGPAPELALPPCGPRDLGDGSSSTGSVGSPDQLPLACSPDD
UniProt O43439: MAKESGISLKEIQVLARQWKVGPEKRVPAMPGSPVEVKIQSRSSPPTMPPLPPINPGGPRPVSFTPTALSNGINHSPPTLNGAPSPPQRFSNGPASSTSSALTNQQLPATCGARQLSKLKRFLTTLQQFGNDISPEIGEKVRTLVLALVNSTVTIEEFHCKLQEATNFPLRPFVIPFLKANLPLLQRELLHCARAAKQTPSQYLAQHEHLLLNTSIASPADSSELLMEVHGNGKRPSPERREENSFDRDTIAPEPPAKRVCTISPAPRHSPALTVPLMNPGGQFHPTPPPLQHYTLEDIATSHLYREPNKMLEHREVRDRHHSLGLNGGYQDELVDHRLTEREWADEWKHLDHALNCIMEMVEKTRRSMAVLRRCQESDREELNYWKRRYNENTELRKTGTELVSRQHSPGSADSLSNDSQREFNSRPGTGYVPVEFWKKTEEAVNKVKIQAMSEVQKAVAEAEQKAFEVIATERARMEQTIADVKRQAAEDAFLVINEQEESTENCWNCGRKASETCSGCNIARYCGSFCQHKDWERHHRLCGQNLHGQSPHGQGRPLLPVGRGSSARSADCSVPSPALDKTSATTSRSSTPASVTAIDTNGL
UniProt P16152: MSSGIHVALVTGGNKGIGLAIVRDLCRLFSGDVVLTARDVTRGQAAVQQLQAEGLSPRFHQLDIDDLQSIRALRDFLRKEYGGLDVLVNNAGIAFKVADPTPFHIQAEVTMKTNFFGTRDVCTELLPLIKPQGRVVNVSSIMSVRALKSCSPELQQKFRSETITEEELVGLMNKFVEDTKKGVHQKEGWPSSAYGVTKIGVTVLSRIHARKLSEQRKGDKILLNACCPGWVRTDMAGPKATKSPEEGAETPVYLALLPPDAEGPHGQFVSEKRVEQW
UniProt P19397: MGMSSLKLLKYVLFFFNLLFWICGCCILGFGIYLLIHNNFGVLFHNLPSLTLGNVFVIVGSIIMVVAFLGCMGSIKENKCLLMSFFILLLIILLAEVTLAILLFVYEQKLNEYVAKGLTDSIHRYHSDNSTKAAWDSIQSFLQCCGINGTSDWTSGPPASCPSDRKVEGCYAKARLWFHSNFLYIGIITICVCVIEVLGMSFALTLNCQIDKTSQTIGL
UniProt O00421: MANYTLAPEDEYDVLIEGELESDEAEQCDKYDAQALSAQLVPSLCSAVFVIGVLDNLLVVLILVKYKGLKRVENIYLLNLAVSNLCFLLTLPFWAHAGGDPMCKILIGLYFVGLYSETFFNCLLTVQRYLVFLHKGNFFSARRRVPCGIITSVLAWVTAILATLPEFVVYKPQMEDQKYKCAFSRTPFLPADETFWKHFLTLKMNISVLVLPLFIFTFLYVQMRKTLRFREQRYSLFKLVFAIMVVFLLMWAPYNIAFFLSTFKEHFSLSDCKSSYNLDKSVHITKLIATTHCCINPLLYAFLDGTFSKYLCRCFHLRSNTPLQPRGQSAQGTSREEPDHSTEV
UniProt Q96BQ5: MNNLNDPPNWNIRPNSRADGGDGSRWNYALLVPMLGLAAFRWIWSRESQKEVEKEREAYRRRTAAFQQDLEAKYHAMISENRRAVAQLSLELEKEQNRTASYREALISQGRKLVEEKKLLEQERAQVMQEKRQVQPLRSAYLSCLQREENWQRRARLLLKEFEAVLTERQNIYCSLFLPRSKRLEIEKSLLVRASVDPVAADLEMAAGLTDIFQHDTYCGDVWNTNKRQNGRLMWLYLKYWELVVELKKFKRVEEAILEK
UniProt A6NKD9: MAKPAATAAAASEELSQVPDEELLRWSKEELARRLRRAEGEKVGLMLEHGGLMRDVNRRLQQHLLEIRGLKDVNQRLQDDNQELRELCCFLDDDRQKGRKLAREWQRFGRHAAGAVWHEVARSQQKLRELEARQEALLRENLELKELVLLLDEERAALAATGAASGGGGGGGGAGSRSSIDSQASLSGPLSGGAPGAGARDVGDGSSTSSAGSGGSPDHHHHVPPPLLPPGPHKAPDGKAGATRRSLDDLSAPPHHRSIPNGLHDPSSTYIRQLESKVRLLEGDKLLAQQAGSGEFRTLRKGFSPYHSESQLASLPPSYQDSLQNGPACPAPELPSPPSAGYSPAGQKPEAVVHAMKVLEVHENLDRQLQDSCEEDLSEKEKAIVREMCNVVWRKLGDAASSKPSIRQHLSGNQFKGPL

How the values were obtained:
Test in all cases: log2 fold change, soluble protein after heating vs DMSO (PISA); higher = thermal stabilisation; K562 lysate, 10 uM; active = over 0.2 and 3.5 SD of the protein, either way, in both replicates (recomputed)
erlotinib = compound: C#Cc1cccc(Nc2ncnc3cc(OCCOC)c(OCCOC)cc23)c1 [erlotinib]
Method in brief: (§1)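 Log-two fold change in thermal stability relative to solvent controls is reported from duplicates. For each sample, crude K562 extract from dounce-homogenised pellets in PBS pH 7.4 with 1 mM MgCl2, at 1 mg/mL protein, was treated with 10 μM compound for 30 min. Aliquots heated for 3 min across 48°C-58°C were pooled, brought to 0.5% NP-40 at 4°C and cleared at 21,000xg for 90 min. The supernatant was quantified by TMTpro 16plex LC-MS/MS with channel sums equalised.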

[1] = compound: C/C(=N\NC(=O)C1=CC(=CC=C1)S(=O)(=O)N2CCOCC2)/C3=C(C=CC(=C3)Cl)O
Method in brief: as §1

[2] = compound: C1=CC(=CC=C1C2=NC3=C(N2)C=C(C=C3)C(=O)N)OC4=CC=C(C=C4)Cl
Method in brief: as §1

[3] = compound: C1=CC2=C(C=CC(=C2)/C=C\3/C(=O)NC(=NCC4=CC=CS4)S3)N=C1
Method in brief: as §1

[4] = compound: C1=CC2=NC=CN=C2C=C1/C=C/3\C(=O)NC(=O)S3
Method in brief: as §1

[5] = compound: C1=CC=C2C(=C1)C3=NNC4=CC=CC(=C43)C2=O
Method in brief: as §1

[6] = compound: C1CCN(C1)C(=O)NC2=CC=CC(=C2)NC3=NC=C(C(=N3)NCCC4=CN=CN4)Br
Method in brief: as §1

[7] = compound: C1CN(CCC1(CC2=CC=C(C=C2)Cl)N)C3=NC=NC4=C3C=CN4
Method in brief: as §1

ibrutinib = compound: C=CC(=O)N1CCC[C@@H](n2nc(-c3ccc(Oc4ccccc4)cc3)c3c(N)ncnc32)C1 [ibrutinib]
Method in brief: as §1

[8] = compound: CC(C)C1=C2N=C(C=C(N2N=C1)NCC3=CC=CC=C3)NCCCCCCN
Method in brief: as §1

[9] = compound: CC1=C(C(CC(=O)N1)C2=CC=C(C=C2)C(F)(F)F)C(=O)NC3=C(C=C4C(=C3)C=NN4)F
Method in brief: as §1

[10] = compound: CC1=C(C=C(C=C1)NC(=O)C2=CC(=CC=C2)C(C)(C)C#N)NC3=CC4=C(C=C3)N=CN(C4=O)C
Method in brief: as §1

[11] = compound: CC1=C(C2=C(C=C1)C(=O)C3=CC=CC=C3N2CCCN)C
Method in brief: as §1

[12] = compound: C1=CC=C(C=C1)C2=NC(=C(N2)C3=CC=NC=C3)C4=CC(=C(C=C4)Cl)O
Method in brief: as §1

IRAK-1-4 Inhibitor I = compound: C1COCCN1CCN2C3=CC=CC=C3N=C2NC(=O)C4=CC(=CC=C4)[N+](=O)[O-] [IRAK-1-4 Inhibitor I]
Method in brief: as §1

[13] = compound: CC(=O)c1cnc2ccc(-c3cc(Cl)c(O)c(Cl)c3)nc2c1N[C@H]1CC[C@H](CN(C)C)CC1
Method in brief: as §1

ralimetinib = compound: CC(C)(C)Cn1c(N)nc2ccc(-c3[nH]c(C(C)(C)C)nc3-c3ccc(F)cc3)nc21 [ralimetinib]
Method in brief: as §1

[14] = compound: CC(C)(O)CC(=O)NCCn1ccc2ncnc(Nc3ccc(Oc4cccc(C(F)(F)F)c4)c(Cl)c3)c21
Method in brief: as §1

[15] = compound: CC1=C(C=C(C=C1)NC(=O)C2=CC(=CC=C2)N(C)C)NC(=O)C3=CC=C(C=C3)O
Method in brief: as §1

[16] = compound: CC1=CC=C(C=C1)SC2=C3C=C(SC3=CN=C2)C(=O)N
Method in brief: as §1

Measured: log2 fold change

CCHCR1 isoform 2 (UniProt Q8TD31)
inactive: erlotinib 0.078 | [1] 0.148 | [2] -0.103 | [3] 0.008 | [4] -0.051 | [5] -0.14 | [6] -0.027 | [7] -0.152 | ibrutinib 0.116 | [8] 0.122 | [9] -0.048 | [10] 0.03

CCDC136 isoform 4 (UniProt Q96JN2)
inactive: erlotinib 0.009 | [1] -0.076 | [2] 0.06 | [3] -0.024 | [5] -0.037 | [6] -0.035 | [7] 0.085 | [8] -0.09 | [11] -0.06 | [10] -0.076

CASK (UniProt O14936)
inactive: erlotinib -0.151 | [1] -0.05 | [2] 0.025 | [3] 0.034 | [4] 0.014 | [12] 0.027 | [5] -0.007 | [6] 0.068 | [7] 0.029 | IRAK-1-4 Inhibitor I -0.059 | ibrutinib 0.108 | [13] -0.031 | ralimetinib 0.025 | [14] -0.097 | [8] -0.126 | [11] -0.005 | [10] -0.043 | [15] 0.016 | [16] 0.052

CASS4 (UniProt Q9NQ75)
inactive: erlotinib 0.041 | [1] -0.121 | [2] 0.022 | [3] -0.032 | [12] -0.084 | [5] 0.035 | [6] -0.158 | [7] 0.039 | IRAK-1-4 Inhibitor I -0.018 | ralimetinib -0.011 | [14] -0.114 | [8] 0.089 | [9] 0.104 | [11] 0.119 | [10] -0.073 | [15] 0.046

CBFB (UniProt Q13951)
inactive: erlotinib 0.028 | [2] -0.061 | [4] -0.031 | [12] 0.013 | [6] -0.004 | [7] 0.031 | IRAK-1-4 Inhibitor I -0.037 | ibrutinib -0.026 | [13] -0.036 | ralimetinib -0.035 | [14] 0.001 | [8] -0.024 | [9] 0.016 | [11] 0.005 | [10] 0.008 | [15] -0.087 | [16] -0.03

CD151 (UniProt P48509)
inactive: erlotinib -0.038 | [1] -0.042 | [2] -0.041 | [3] -0.061 | [4] 0.085 | [12] 0.054 | [5] 0.117 | [6] 0 | [7] -0.268 | IRAK-1-4 Inhibitor I 0.036 | ibrutinib -0.054 | [13] -0.012 | ralimetinib -0.016 | [14] -0.051 | [8] -0.017 | [9] 0.089 | [11] -0.351 | [10] -0.243 | [15] -0.03 | [16] -0.004

Reprinted at random: two records from the list.
CBFB (UniProt Q13951)
inactive: erlotinib 0.028 | [2] -0.061 | [4] -0.031 | [12] 0.013 | [6] -0.004 | [7] 0.031 | IRAK-1-4 Inhibitor I -0.037 | ibrutinib -0.026 | [13] -0.036 | ralimetinib -0.035 | [14] 0.001 | [8] -0.024 | [9] 0.016 | [11] 0.005 | [10] 0.008 | [15] -0.087 | [16] -0.03

CASK (UniProt O14936)
inactive: erlotinib -0.151 | [1] -0.05 | [2] 0.025 | [3] 0.034 | [4] 0.014 | [12] 0.027 | [5] -0.007 | [6] 0.068 | [7] 0.029 | IRAK-1-4 Inhibitor I -0.059 | ibrutinib 0.108 | [13] -0.031 | ralimetinib 0.025 | [14] -0.097 | [8] -0.126 | [11] -0.005 | [10] -0.043 | [15] 0.016 | [16] 0.052

The list goes on:

CCDC85B (UniProt Q15834)
inactive: erlotinib -0.126 | [1] 0.22 | [2] -0.066 | [3] -0.022 | [4] -0.001 | [12] -0.058 | [5] 0.015 | [6] -0.361 | [7] -0.203 | IRAK-1-4 Inhibitor I 0.011 | ibrutinib 0.215 | [13] -0.248 | ralimetinib -0.001 | [14] 0.05 | [8] 0.056 | [11] 0.004 | [10] -0.016 | [15] -0.163 | [16] 0.014

CBFA2T2 isoform 4 (UniProt O43439)
inactive: erlotinib 0.06 | [1] -0.09 | [2] 0.017 | [3] 0.125 | [12] 0 | [5] 0.006 | [6] -0.404 | [7] 0.104 | IRAK-1-4 Inhibitor I -0.013 | [13] 0.181 | ralimetinib 0.177 | [14] 0.055 | [8] 0.051 | [9] 0.002 | [11] 0.105 | [10] 0.002 | [15] -0.093 | [16] -0.214

CBR1 (UniProt P16152)
inactive: erlotinib 0.011 | [1] 0.025 | [2] -0.001 | [3] 0.003 | [4] 0.016 | [12] 0.047 | [5] -0.001 | [6] -0.008 | [7] -0.006 | IRAK-1-4 Inhibitor I -0.033 | ibrutinib 0.04 | [13] -0.017 | ralimetinib 0.009 | [14] 0.006 | [8] 0.001 | [9] -0.032 | [11] 0.045 | [10] -0.015 | [15] 0.02 | [16] -0.003

CD53 (UniProt P19397)
inactive: erlotinib 0.001 | [1] 0.041 | [2] -0.019 | [3] -0.031 | [4] 0.095 | [12] -0.058 | [5] -0.061 | [6] -0.072 | [7] 0.032 | IRAK-1-4 Inhibitor I 0.044 | ibrutinib 0.055 | [13] 0.03 | ralimetinib -0.009 | [14] -0.188 | [8] -0.102 | [9] -0.018 | [10] 0 | [15] -0.045 | [16] 0.039

CCRL2 isoform 2 (UniProt O00421)
inactive: erlotinib -0.146 | [2] -0.009 | [4] 0.063 | [12] -0.152 | IRAK-1-4 Inhibitor I 0.097 | ibrutinib 0.045 | ralimetinib 0.01 | [14] -0.075 | [8] 0.026 | [9] -0.099 | [15] -0.105

CCDC127 (UniProt Q96BQ5)
inactive: erlotinib -0.014 | [2] -0.044 | [4] -0.025 | [12] -0.043 | [6] 0.049 | [7] -0.026 | IRAK-1-4 Inhibitor I 0.029 | ibrutinib 0.021 | [13] 0.062 | ralimetinib 0.002 | [14] -0.043 | [8] 0.014 | [11] -0.028 | [10] -0.111 | [15] 0.02 | [16] -0.055

CCDC85C (UniProt A6NKD9)
inactive: [1] -0.426 | [3] 0.012 | [4] -0.062 | [5] -0.046 | [6] 0.058 | [7] 0.018 | ibrutinib 0.003 | [13] -0.029 | [9] 0.027 | [11] 0.051 | [10] 0.032 | [16] -0.023
